Reference: patent US20080026992A1, “Tyrosine Phosphorylation of Cdk Inhibitor Proteins of the Cip/Kip Family” (priority 2003, published 2008)
No constants are given. Whether binding was seen depends on the method and setting. Some entries that bind do so weakly or less than the wild type.

Sequences of proteins named here, by UniProt entry; tags and fusion partners are left off. A change or cut given only in a name is not applied to a line headed by its entry. Residues count along the entry.
UniProt P46527: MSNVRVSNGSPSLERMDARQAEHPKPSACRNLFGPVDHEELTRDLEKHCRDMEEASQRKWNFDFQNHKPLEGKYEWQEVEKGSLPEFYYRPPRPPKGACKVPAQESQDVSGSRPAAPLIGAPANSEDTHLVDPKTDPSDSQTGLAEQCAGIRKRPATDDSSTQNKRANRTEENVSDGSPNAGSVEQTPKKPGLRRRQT
UniProt P07948: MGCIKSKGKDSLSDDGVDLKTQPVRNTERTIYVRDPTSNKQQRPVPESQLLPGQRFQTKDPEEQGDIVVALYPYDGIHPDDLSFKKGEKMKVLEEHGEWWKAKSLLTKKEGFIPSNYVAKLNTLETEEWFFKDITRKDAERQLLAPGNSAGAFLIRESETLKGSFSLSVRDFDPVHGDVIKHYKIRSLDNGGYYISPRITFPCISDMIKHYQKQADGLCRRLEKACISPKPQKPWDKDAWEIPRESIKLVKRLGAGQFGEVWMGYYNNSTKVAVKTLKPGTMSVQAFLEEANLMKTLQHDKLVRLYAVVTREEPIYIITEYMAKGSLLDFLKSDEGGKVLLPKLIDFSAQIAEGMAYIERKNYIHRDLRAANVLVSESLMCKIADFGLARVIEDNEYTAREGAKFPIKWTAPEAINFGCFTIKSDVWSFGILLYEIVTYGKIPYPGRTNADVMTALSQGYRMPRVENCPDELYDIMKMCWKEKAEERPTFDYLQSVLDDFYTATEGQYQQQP
UniProt P62993, residues 156-217: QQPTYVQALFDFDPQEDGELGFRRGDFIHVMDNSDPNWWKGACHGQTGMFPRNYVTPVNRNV

Columns and labels:
[1] = biological target: p27Kip1, recombinant, unphosphorylated (human) (UniProt P46527); test: direct binding in vitro
[2] = biological target: p27Kip1, recombinant, unphosphorylated (human) (UniProt P46527); test: in vitro screen of GST-fused SH3 domains for p27 binding
[3] = biological target: tyrosine kinase Lyn (in cells) (UniProt P07948); test: complex formation in vivo (unpublished observations of the inventors)

“C-terminal SH3 domain of Grb2 (from UniProt P62993 156-217)” was tested. Which binding [1] did it give?
The binding was “binds”.

With “SH3 domain of the tyrosine kinase Lyn fused to GST (from UniProt P07948 63-123)” as the substance, how does the binding [2] read?
The binding was “binds”.

“mutant of p27 lacking all three tyrosines (tyrosines 74, 88 and 89 replaced by phenylalanine) (from UniProt P46527 1-198)” was tested. Which binding [3] did it give?
The binding was “binds”.
